Results on one molecule are retold here after article PMC5873529.

Amino acid sequences for entries named in this document (tags omitted).
UniProt Q8IX03: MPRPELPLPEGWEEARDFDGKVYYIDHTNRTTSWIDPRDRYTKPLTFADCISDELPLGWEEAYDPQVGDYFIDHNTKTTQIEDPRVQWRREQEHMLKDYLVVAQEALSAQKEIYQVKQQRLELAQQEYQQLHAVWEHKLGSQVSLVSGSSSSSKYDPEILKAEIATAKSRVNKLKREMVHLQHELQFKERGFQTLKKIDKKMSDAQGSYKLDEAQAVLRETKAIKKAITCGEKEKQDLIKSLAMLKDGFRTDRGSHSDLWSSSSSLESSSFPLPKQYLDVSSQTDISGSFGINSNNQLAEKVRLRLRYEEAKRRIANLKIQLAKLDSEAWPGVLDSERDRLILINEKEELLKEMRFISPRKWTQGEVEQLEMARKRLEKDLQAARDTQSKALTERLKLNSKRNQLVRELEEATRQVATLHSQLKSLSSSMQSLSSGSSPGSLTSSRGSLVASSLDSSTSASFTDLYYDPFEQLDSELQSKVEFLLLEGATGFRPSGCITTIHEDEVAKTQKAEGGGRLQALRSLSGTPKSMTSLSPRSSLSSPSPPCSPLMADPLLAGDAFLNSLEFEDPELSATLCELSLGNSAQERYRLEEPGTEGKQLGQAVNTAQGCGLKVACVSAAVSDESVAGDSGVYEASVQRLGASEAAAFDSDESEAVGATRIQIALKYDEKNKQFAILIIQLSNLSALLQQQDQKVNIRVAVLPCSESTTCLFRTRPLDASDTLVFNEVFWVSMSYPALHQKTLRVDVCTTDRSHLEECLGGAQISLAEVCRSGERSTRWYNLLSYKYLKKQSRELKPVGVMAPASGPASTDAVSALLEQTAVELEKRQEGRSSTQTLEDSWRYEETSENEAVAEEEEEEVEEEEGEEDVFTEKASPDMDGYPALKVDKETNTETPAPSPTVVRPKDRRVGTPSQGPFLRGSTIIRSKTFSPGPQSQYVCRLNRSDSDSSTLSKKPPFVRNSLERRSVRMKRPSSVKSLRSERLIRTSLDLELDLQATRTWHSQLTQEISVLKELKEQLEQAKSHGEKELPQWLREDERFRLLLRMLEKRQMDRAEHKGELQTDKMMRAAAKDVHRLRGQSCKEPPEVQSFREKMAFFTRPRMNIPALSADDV

For the assay, the target named is wild-type KIBRA (WWC1), BirA*-FLAG BioID bait in MDA-MB-231 cells (UniProt Q8IX03). Put plainly: proximity labelling; BioID: KIBRA constructs in pSTV2-BirA*-FLAG expressed in MDA-MB-231 cells, biotinylated proteins by mass spectrometry, biological duplicates, scored with SAINTexpress against negative controls (vector alone).

These are yes or no findings as the source states them, for the method shown. In cells and extracts the contact can be indirect. Here binding means that the protein was enriched with, or labelled near, the bait; the list need not be complete.

B1: PTPN14 (protein tyrosine phosphatase non-receptor 14) (enzyme, UniProt Q15678 1-1187)
chain: MPFGLKLRRTRRYNVLSKNCFVTRIRLLDSNVIECTLSVESTGQECLEAVAQRLELRETHYFGLWFLSKSQQARWVELEKPLKKHLDKFANEPLLFFGVMFYVPNVSWLQQEATRYQYYLQVKKDVLEGRLRCTLDQVIRLAGLAVQADFGDYNQFDSQDFLREYVLFPMDLALEEAVLEELTQKVAQEHKAHSGILPAEAELMYINEVERLDGFGQEIFPVKDNHGNCVHLGIFFMGIFVRNRIGRQAVIYRWNDMGNITHNKSTILVELINKEETALFHTDDIENAKYISRLFATRHKFYKQNKICTEQSNSPPPIRRQPTWSRSSLPRQQPYILPPVHVQCGEHYSETHTSQDSIFHGNEEALYCNSHNSLDLNYLNGTVTNGSVCSVHSVNSLNCSQSFIQASPVSSNLSIPGSDIMRADYIPSHRHSAIIVPSYRPTPDYETVMRQMKRGILHTDSQSQSLRNLNIINTHAYNQPEDLVYSQPEMRERHPYTVPYGPQGVYSNKLVSPSDQRNPKNNVVPSKPGASAISHTVSTPELANMQLQGSHNYSTAHMLKNYLFRPPPPYPRPRPATSTPDLASHRHKYVSGSSPDLVTRKVQLSVKTFQEDSSPVVHQSLQEVSEPLTATKHHGTVNKRHSLEVMNSMVRGMEAMTLKSLHLPMARRNTLREQGPPEEGSGSHEVPQLPQYHHKKTFSDATMLIHSSESEEEEEEAPESVPQIPMLREKMEYSAQLQAALARIPNKPPPEYPGPRKSVSNGALRQDQASLPPAMARARVLRHGPAKAISMSRTDPPAVNGASLGPSISEPDLTSVKERVKKEPVKERPVSEMFSLEDSIIEREMMIRNLEKQKMAGLEAQKRPLMLAALNGLSVARVSGREENRVDATRVPMDERFRTLKKKLEEGMVFTEYEQIPKKKANGIFSTAALPENAERSRIREVVPYEENRVELIPTKENNTGYINASHIKVVVGGAEWHYIATQGPLPHTCHDFWQMVWEQGVNVIAMVTAEEEGGRTKSHRYWPKLGSKHSSATYGKFKVTTKFRTDSVCYATTGLKVKHLLSGQERTVWHLQYTDWPDHGCPEDVQGFLSYLEEIQSVRRHTNSMLEGTKNRHPPIVVHCSAGVGRTGVLILSELMIYCLEHNEKVEVPMMLRLLREQRMFMIQTIAQYKFVYQVLIQFLQNSRLI
Consider B1, for which the binding result is given as “binds”.
